Among the data in article doi:10.1101/2024.10.03.616509 are binding values, retold here.

No constants are given. Whether binding was seen depends on the method and setting. Binding calls can cover weak binding; strength is not graded here.

B1: TECPR2 (I1256A) (protein, UniProt O15040 1-1411)
chain: MASISEPVTFREFCPLYYLLNAIPTKIQKGFRSIVVYLTALDTNGDYIAVGSSIGMLYLYCRHLNQMRKYNFEGKTESITVVKLLSCFDDLVAAGTASGRVAVFQLVSSLPGRNKQLRRFDVTGIHKNSITALAWSPNGMKLFSGDDKGKIVYSSLDLDQGLCNSQLVLEEPSSIVQLDYSQKVLLVSTLQRSLLFYTEEKSVRQIGTQPRKSTGKFGACFIPGLCKQSDLTLYASRPGLRLWKADVHGTVQATFILKDAFAGGVKPFELHPRLESPNSGSCSLPERHLGLVSCFFQEGWVLSWNEYSIYLLDTVNQATVAGLEGSGDIVSVSCTENEIFFLKGDRNIIRISSRPEGLTSTVRDGLEMSGCSERVHVQQAEKLPGATVSETRLRGSSMASSVASEPRSRSSSLNSTDSGSGLLPPGLQATPELGKGSQPLSQRFNAISSEDFDQELVVKPIKVKRKKKKKKTEGGSRSTCHSSLESTPCSEFPGDSPQSLNTDLLSMTSSVLGSSVDQLSAESPDQESSFNGEVNGVPQENTDPETFNVLEVSGSMPDSLAEEDDIRTEMPHCHHAHGRELLNGAREDVGGSDVTGLGDEPCPADDGPNSTQLPFQEQDSSPGAHDGEDIQPIGPQSTFCEVPLLNSLTVPSSLSWAPSAEQWLPGTRADEGSPVEPSQEQDILTSMEASGHLSTNLWHAVTDDDTGQKEIPISERVLGSVGGQLTPVSALAASTHKPWLEQPPRDQTLTSSDEEDIYAHGLPSSSSETSVTELGPSCSQQDLSRLGAEDAGLLKPDQFAESWMGYSGPGYGILSLVVSEKYIWCLDYKGGLFCSALPGAGLRWQKFEDAVQQVAVSPSGALLWKIEQKSNRAFACGKVTIKGKRHWYEALPQAVFVALSDDTAWIIRTSGDLYLQTGLSVDRPCARAVKVDCPYPLSQITARNNVVWALTEQRALLYREGVSSFCPEGEQWKCDIVSERQALEPVCITLGDQQTLWALDIHGNLWFRTGIISKKPQGDDDHWWQVSITDYVVFDQCSLFQTIIHATHSVATAAQAPVEKVADKLRMAFWSQQLQCQPSLLGVNNSGVWISSGKNEFHVAKGSLIGTYWNHVVPRGTASATKWAFVLASAAPTKEGSFLWLCQSSKDLCSVSAQSAQSRPSTVQLPPEAEMRAYAACQDALWALDSLGQVFIRTLSKSCPTGMHWTRLDLSQLGAVKLTSLACGNQHIWACDSRGGVYFRVGTQPLNPSLMLPAWAMIEPPVQPAGVSLVSVHSSPNDQMLWVLDSRWNVHVRTGITEEMPVGTAWEHVPGLQACQLALSTRTVWARCPNGDLARRYGVTDKNPAGDYWKKIPGSVSCFTVTASDELWAVGPPGYLLQRLTKTFSHSHGTQKSSQAAMPHPEDLEDEWEVI
B2: TECPR2 (T903M) (protein, UniProt O15040 1-1411)
chain: MASISEPVTFREFCPLYYLLNAIPTKIQKGFRSIVVYLTALDTNGDYIAVGSSIGMLYLYCRHLNQMRKYNFEGKTESITVVKLLSCFDDLVAAGTASGRVAVFQLVSSLPGRNKQLRRFDVTGIHKNSITALAWSPNGMKLFSGDDKGKIVYSSLDLDQGLCNSQLVLEEPSSIVQLDYSQKVLLVSTLQRSLLFYTEEKSVRQIGTQPRKSTGKFGACFIPGLCKQSDLTLYASRPGLRLWKADVHGTVQATFILKDAFAGGVKPFELHPRLESPNSGSCSLPERHLGLVSCFFQEGWVLSWNEYSIYLLDTVNQATVAGLEGSGDIVSVSCTENEIFFLKGDRNIIRISSRPEGLTSTVRDGLEMSGCSERVHVQQAEKLPGATVSETRLRGSSMASSVASEPRSRSSSLNSTDSGSGLLPPGLQATPELGKGSQPLSQRFNAISSEDFDQELVVKPIKVKRKKKKKKTEGGSRSTCHSSLESTPCSEFPGDSPQSLNTDLLSMTSSVLGSSVDQLSAESPDQESSFNGEVNGVPQENTDPETFNVLEVSGSMPDSLAEEDDIRTEMPHCHHAHGRELLNGAREDVGGSDVTGLGDEPCPADDGPNSTQLPFQEQDSSPGAHDGEDIQPIGPQSTFCEVPLLNSLTVPSSLSWAPSAEQWLPGTRADEGSPVEPSQEQDILTSMEASGHLSTNLWHAVTDDDTGQKEIPISERVLGSVGGQLTPVSALAASTHKPWLEQPPRDQTLTSSDEEDIYAHGLPSSSSETSVTELGPSCSQQDLSRLGAEDAGLLKPDQFAESWMGYSGPGYGILSLVVSEKYIWCLDYKGGLFCSALPGAGLRWQKFEDAVQQVAVSPSGALLWKIEQKSNRAFACGKVTIKGKRHWYEALPQAVFVALSDDMAWIIRTSGDLYLQTGLSVDRPCARAVKVDCPYPLSQITARNNVVWALTEQRALLYREGVSSFCPEGEQWKCDIVSERQALEPVCITLGDQQTLWALDIHGNLWFRTGIISKKPQGDDDHWWQVSITDYVVFDQCSLFQTIIHATHSVATAAQAPVEKVADKLRMAFWSQQLQCQPSLLGVNNSGVWISSGKNEFHVAKGSLIGTYWNHVVPRGTASATKWAFVLASAAPTKEGSFLWLCQSSKDLCSVSAQSAQSRPSTVQLPPEAEMRAYAACQDALWALDSLGQVFIRTLSKSCPTGMHWTRLDLSQLGAVKLTSLACGNQHIWACDSRGGVYFRVGTQPLNPSLMLPAWIMIEPPVQPAGVSLVSVHSSPNDQMLWVLDSRWNVHVRTGITEEMPVGTAWEHVPGLQACQLALSTRTVWARCPNGDLARRYGVTDKNPAGDYWKKIPGSVSCFTVTASDELWAVGPPGYLLQRLTKTFSHSHGTQKSSQAAMPHPEDLEDEWEVI
B3: TECPR2 (D1000Y) (protein, UniProt O15040 1-1411)
chain: MASISEPVTFREFCPLYYLLNAIPTKIQKGFRSIVVYLTALDTNGDYIAVGSSIGMLYLYCRHLNQMRKYNFEGKTESITVVKLLSCFDDLVAAGTASGRVAVFQLVSSLPGRNKQLRRFDVTGIHKNSITALAWSPNGMKLFSGDDKGKIVYSSLDLDQGLCNSQLVLEEPSSIVQLDYSQKVLLVSTLQRSLLFYTEEKSVRQIGTQPRKSTGKFGACFIPGLCKQSDLTLYASRPGLRLWKADVHGTVQATFILKDAFAGGVKPFELHPRLESPNSGSCSLPERHLGLVSCFFQEGWVLSWNEYSIYLLDTVNQATVAGLEGSGDIVSVSCTENEIFFLKGDRNIIRISSRPEGLTSTVRDGLEMSGCSERVHVQQAEKLPGATVSETRLRGSSMASSVASEPRSRSSSLNSTDSGSGLLPPGLQATPELGKGSQPLSQRFNAISSEDFDQELVVKPIKVKRKKKKKKTEGGSRSTCHSSLESTPCSEFPGDSPQSLNTDLLSMTSSVLGSSVDQLSAESPDQESSFNGEVNGVPQENTDPETFNVLEVSGSMPDSLAEEDDIRTEMPHCHHAHGRELLNGAREDVGGSDVTGLGDEPCPADDGPNSTQLPFQEQDSSPGAHDGEDIQPIGPQSTFCEVPLLNSLTVPSSLSWAPSAEQWLPGTRADEGSPVEPSQEQDILTSMEASGHLSTNLWHAVTDDDTGQKEIPISERVLGSVGGQLTPVSALAASTHKPWLEQPPRDQTLTSSDEEDIYAHGLPSSSSETSVTELGPSCSQQDLSRLGAEDAGLLKPDQFAESWMGYSGPGYGILSLVVSEKYIWCLDYKGGLFCSALPGAGLRWQKFEDAVQQVAVSPSGALLWKIEQKSNRAFACGKVTIKGKRHWYEALPQAVFVALSDDTAWIIRTSGDLYLQTGLSVDRPCARAVKVDCPYPLSQITARNNVVWALTEQRALLYREGVSSFCPEGEQWKCDIVSERQALEPVCITLGDQQTLWALYIHGNLWFRTGIISKKPQGDDDHWWQVSITDYVVFDQCSLFQTIIHATHSVATAAQAPVEKVADKLRMAFWSQQLQCQPSLLGVNNSGVWISSGKNEFHVAKGSLIGTYWNHVVPRGTASATKWAFVLASAAPTKEGSFLWLCQSSKDLCSVSAQSAQSRPSTVQLPPEAEMRAYAACQDALWALDSLGQVFIRTLSKSCPTGMHWTRLDLSQLGAVKLTSLACGNQHIWACDSRGGVYFRVGTQPLNPSLMLPAWIMIEPPVQPAGVSLVSVHSSPNDQMLWVLDSRWNVHVRTGITEEMPVGTAWEHVPGLQACQLALSTRTVWARCPNGDLARRYGVTDKNPAGDYWKKIPGSVSCFTVTASDELWAVGPPGYLLQRLTKTFSHSHGTQKSSQAAMPHPEDLEDEWEVI
B4: TECPR2 (1-944 a.a.) (domain or fragment, UniProt O15040 1-944)
chain: MASISEPVTFREFCPLYYLLNAIPTKIQKGFRSIVVYLTALDTNGDYIAVGSSIGMLYLYCRHLNQMRKYNFEGKTESITVVKLLSCFDDLVAAGTASGRVAVFQLVSSLPGRNKQLRRFDVTGIHKNSITALAWSPNGMKLFSGDDKGKIVYSSLDLDQGLCNSQLVLEEPSSIVQLDYSQKVLLVSTLQRSLLFYTEEKSVRQIGTQPRKSTGKFGACFIPGLCKQSDLTLYASRPGLRLWKADVHGTVQATFILKDAFAGGVKPFELHPRLESPNSGSCSLPERHLGLVSCFFQEGWVLSWNEYSIYLLDTVNQATVAGLEGSGDIVSVSCTENEIFFLKGDRNIIRISSRPEGLTSTVRDGLEMSGCSERVHVQQAEKLPGATVSETRLRGSSMASSVASEPRSRSSSLNSTDSGSGLLPPGLQATPELGKGSQPLSQRFNAISSEDFDQELVVKPIKVKRKKKKKKTEGGSRSTCHSSLESTPCSEFPGDSPQSLNTDLLSMTSSVLGSSVDQLSAESPDQESSFNGEVNGVPQENTDPETFNVLEVSGSMPDSLAEEDDIRTEMPHCHHAHGRELLNGAREDVGGSDVTGLGDEPCPADDGPNSTQLPFQEQDSSPGAHDGEDIQPIGPQSTFCEVPLLNSLTVPSSLSWAPSAEQWLPGTRADEGSPVEPSQEQDILTSMEASGHLSTNLWHAVTDDDTGQKEIPISERVLGSVGGQLTPVSALAASTHKPWLEQPPRDQTLTSSDEEDIYAHGLPSSSSETSVTELGPSCSQQDLSRLGAEDAGLLKPDQFAESWMGYSGPGYGILSLVVSEKYIWCLDYKGGLFCSALPGAGLRWQKFEDAVQQVAVSPSGALLWKIEQKSNRAFACGKVTIKGKRHWYEALPQAVFVALSDDTAWIIRTSGDLYLQTGLSVDRPCARAVKVDCPYPLSQITARN
B5: TECPR2 (935-1411 a.a.) (domain or fragment, UniProt O15040 935-1411)
chain: YPLSQITARNNVVWALTEQRALLYREGVSSFCPEGEQWKCDIVSERQALEPVCITLGDQQTLWALDIHGNLWFRTGIISKKPQGDDDHWWQVSITDYVVFDQCSLFQTIIHATHSVATAAQAPVEKVADKLRMAFWSQQLQCQPSLLGVNNSGVWISSGKNEFHVAKGSLIGTYWNHVVPRGTASATKWAFVLASAAPTKEGSFLWLCQSSKDLCSVSAQSAQSRPSTVQLPPEAEMRAYAACQDALWALDSLGQVFIRTLSKSCPTGMHWTRLDLSQLGAVKLTSLACGNQHIWACDSRGGVYFRVGTQPLNPSLMLPAWIMIEPPVQPAGVSLVSVHSSPNDQMLWVLDSRWNVHVRTGITEEMPVGTAWEHVPGLQACQLALSTRTVWARCPNGDLARRYGVTDKNPAGDYWKKIPGSVSCFTVTASDELWAVGPPGYLLQRLTKTFSHSHGTQKSSQAAMPHPEDLEDEWEVI

This assay addresses Rab5 (Q79L). The experiment in a line: two-hybrid.
Turning to B1, the binding result is on record as “binds”.
Consider B2, for which the binding result is recorded as “binds”.
For the molecule B3, the binding entry was “binds weakly”.
As to B4, the binding result is given as “no binding”.
The same measure for B5: “binds”.
